Experimental data taken from US12415794B2 (Edgewise Therapeutics, Inc., priority 2018, dated 2025).
At least one compound was matched to its structure with a doubt left.

Biological target: skeletal myofibrils (myosin ATPase)
Assay: Skeletal Myofibril ATPase Assay
Assay type: biochemical
Method: FIG. 7 depicts the buffer preparation procedures of Buffer A and Buffer B for the skeletal myofibril ATPase assay described in Example 12. Buffers were stored on ice until use.
Example 12: Skeletal Myofibril ATPase Assay
Overview: Myosin ATPase activity is assessed by using a coupled reaction system, in which ADP generated by the myosin ATPase function is coupled to the disappearance of NADH through the pyruvate kinase/lactate dehydrogenase (PK-LDH) system. ATPase activity produces ADP, which is used as a substrate for PK to produce pyruvate and regenerate ATP. The pyruvate is then used as a substrate by LDH to oxidize NADH to NAD+. The rate of the reaction is monitored through the time-dependent disappearance of NADH using absorbance at 340 nm. Inhibition of ATPase activity by the assayed compounds is indicated by a reduced rate of NADH loss, relative to vehicle-treated controls, over the experimental time window. To assess the selectivity of the assayed compounds for skeletal myofibrils, the compounds are counter-screened in cardiac myofibrils.
Materials: The following stock solutions and reagents were used in the Skeletal Myofibril ATPase Assay:
Stock Solutions of pCa buffer. Combine PIPES, CaCl2, and EGTA solutions with 70 mL of water. Adjust pH to 7.0 and bring final volume to 100 mL.
Skeletal Myofibril ATPase Assay Procedure: BSA, ATP, NADH, PEP, and DTT solutions were thawed at room temperature, then transferred to ice. Pellet-frozen myofibrils were transferred with approximately twice the required volume into a sufficiently large tube and capped. Myofibrils were thawed by rolling in a water bath for approximately 15 min at room temperature and cooled on ice. Buffers A and B were prepared by adjusting volumes as necessary for required number of wells and stored on ice. 0.5 μL of the compounds to be assayed were added into wells. 25 μL of Buffer A was dispensed into the wells, followed by 25 μL of Buffer B. The wells were measured for absorbance at 340 nm, using a kinetic protocol in which the wells are read every 1.5-2 min for 45 min. The slope of the data was approximated by subtracting the minimum absorbance value from the maximum value for each well. This was accomplished either in the SoftMax Pro software or in a spreadsheet program such as Excel. Using GraphPad Prism 8.0, the data was normalized by assigning a value of 100% to the 1% DMSO vehicle wells. Typically, a normalized 0% value was simply assigned to a (Max−Min) value of 0. The normalized data was fit to a Four Parameter Logistic sigmoidal equation, constraining the bottom to be 0 or greater. Compounds of Table 1, 2, and 3 were tested and results of the assay appear in Tables 4a-4c. A=IC50 is less than or equal to 10 μM; B=IC50 is greater than 10 μM and less than 100 μM; C=IC50 is greater than 100 μM.

| SMILES | IC50 (Table 4A) | IC50 (Table 4C) |
| --- | --- | --- |
| CCNC(=O)Cn1nc(-c2ccc(N3C[C@@H]4COCC3CO4)nc2)ccc1=O [Compound I-81, 2-(3-(6-((5R)-3,6-dioxa-8-azabicyclo[3.2.2]nonan-8-yl)pyridin-3-yl)-6-oxopyridazin-1(6H)-yl)-N-ethylacetamide] | > 100 µM | – |
| O=C(Cn1nc(-c2ccc(OC(F)(F)F)nc2)ccc1=O)NCc1ccccc1Cl [Compound I-3, N-(2-chlorobenzyl)-2-(6-oxo-3-(6-(trifluoromethoxy)pyridin-3-yl)pyridazin-1(6H)-yl)acetamide] | < 10 µM | – |
| CCNC(=O)Cn1nc(-c2ccc(OCC3(F)COC3)cc2)ccc1=O [IIIa-27, N-ethyl-2-(3-(4-((3-fluorooxetan-3-yl)methoxy)phenyl)-6-oxopyridazin-yl)acetamide] | – | 10 to 100 µM |
| CCNC(=O)Cn1nc(-c2cnc(OC(F)F)cc2F)ccc1=O [Compound I-80, 2-(3-(6-(difluoromethoxy)-4-fluoropyridin-3-yl)-6-oxopyridazin-1(6H)-yl)-N-ethylacetamide] | > 100 µM | – |
| CCNC(=O)Cn1nc(-c2ccc(NC34CCC(CC3)C4)nc2)ccc1=O [Compound I-38, 2-(3-(6-(((1s,4s)-bicyclo[2.2.1]heptan-1-yl)amino)pyridin-3-yl)-6-oxopyridazin-1(6H)-yl)-N-ethylacetamide] | < 10 µM | – |
